The results in this text go back to patent US20210221885A1.

The chains behind the UniProt entries cited, without tags or fusion partners. Residues count along the entry.
UniProt Q8TDQ0, residues 22-200: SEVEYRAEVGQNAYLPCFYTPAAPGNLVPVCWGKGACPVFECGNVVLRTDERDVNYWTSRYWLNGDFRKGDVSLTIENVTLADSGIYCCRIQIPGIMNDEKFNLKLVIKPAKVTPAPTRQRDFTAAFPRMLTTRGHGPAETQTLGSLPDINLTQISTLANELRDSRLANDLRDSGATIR

Results are given in words; binding and its absence hold for the method and conditions named. Some binding calls cover weakened binding; strength is not graded here.

To fix the notation:
B1: clone TIM3-6, scFv displayed on phage (scFv)
scFv: QVQLVQSGAEVKKPGSSVKVSCKASGGTFSSYTISWVRQAPGQGLEWMGRIIPILGTANYAQKFQGRVTITADESTSTAYMELSSLRSEDTAVYYCASASHTIWGKGTLVTVSSGGGGSGGGGSGGGGSQAVVTQEPSLTVSPGGTVTLTCASSTGAVTSGYSPNWFQQRPGQAPRALIYTTSNRHSWTPARFSGSLLGGKAALTLSGVQPEDEADYYCLLYYGGAWVFGGGTKLTVLG
B2: clone TIM3-11, scFv displayed on phage (scFv)
scFv: QVQLQQSGPGLVKPSQTLSLTCAISGDSVSSNSAAWNWIRQSPSRGLEWLGRTYYRSKWYNDYAVSVKSRITINPDTSKNQFSLQLNSVTPEDTAVYYCARDQAAGFPQPYIYGMDVWGKGTMVTVSSGGGGSGGGGSGGGGSLPVLTQPPSVSKGLRQTATLTCTGNSNNVGNQGAAWLQQHQGHPPKLLTYRTNNRPSGISERFSASRSGNTASLTITGLQPEDEADYYCSGWDSSLNEGVFGGGTKLTVLG
B3: clone TIM3-4G7, scFv displayed on phage (scFv)
scFv: EVQLVETGGGLVQPGGSLRLSCAASGFTFSSYAMSWVRQAPGKGLEWVSGISGSGGSTYYADSVKGRFTTSRDNSENTLYLQMNSLRAEDTAVYYCAGSYYDDAFDIWGQGTLVTVSSGGGGSGGGGSGGGGSETTLTQSPATLSLSPGDTATLSCRASQSVTKDLVAWYQQRPGQAPRLLLYGASSRATGIPDRFSGSGSGTDFTLTISRLEPEDFAVYYCQQYGRSPLTFGGGTKVEIK

This experiment deals with Human TIM-3 protein (Acrobiosystems, Cat#TM3-H5229) (human) (UniProt Q8TDQ0). Nature of the experiment: phage ELISA, human TIM-3 coated at 0.1 µg/mL, anti-M13 detection. In general terms: In an ELISA, binding on a coated surface is turned into a signal by an enzyme label.
B1: the binding result is recorded as “binds”.
The entry for B2 is “binds”; for B3 it is “binds”.
